{"source": "patent US8288111B2", "about": "(Abbott Laboratories, priority 2007, dated 2012)", "tested_on": "anti-CsA monoclonal antibody", "experiment": "ARCHITECT CsA immunoassay Format 4, delayed tracer addition, 2-step: metabolite cross-reactivity", "type": "binding, mouse", "details": "200 ng/mL cyclosporine; metabolite 1000 ng/mL", "note": "At least one structure is not confirmed: it was looked up by name or label, or the drawing left a doubt."}
{"smiles": "CC[C@@H]1NC(=O)[C@H]([C@H](O)[C@H](C)C/C=C/CO)N(C)C(=O)[C@H](C(C)C)N(C)C(=O)[C@H](CC(C)C)N(C)C(=O)[C@H](CC(C)(C)O)N(C)C(=O)[C@@H](C)NC(=O)[C@H](C)NC(=O)[C@H](CC(C)C)N(C)C(=O)[C@H](C(C)C)NC(=O)[C@H](CC(C)C)N(C)C(=O)CN(C)C1=O", "note": "[AM19]", "values": [{"measurement": "Abbott ARCHITECT cross-reactivity", "result": "—0.43%"}]}
